Earlier results as cited in patent US20190014793A1, “METHOD OF PROVIDING NUTRITION TO INFANTS” (ABBOTT LABORATORIES, priority 2011, published 2019).

Conditions: essential amino acid profile; cited from earlier work

In the case of Casein, the Histidine concentration is given as 2.7 g per 100 g of protein, the Isoleucine concentration is given as 5.6 g per 100 g of protein and the Leucine concentration is given as 9.7 g per 100 g of protein. The Lysine concentration was 7.3 g per 100 g of protein, the “Met + Cys concentration” value was 3.0 g per 100 g of protein and the Threonine concentration was 4.2 g per 100 g of protein. For the same substance, the “Total essential amino acid concentration” value was 50.3 g per 100 g of protein, the Tryptophan concentration was 1.2 g per 100 g of protein and the “Tyr + Phe concentration” value was 9.9 g per 100 g of protein. The Valine concentration was 6.7 g per 100 g of protein.
